Consider 2 molecules from PubChem BioAssay AID179 (DTP/NCI, 2004).

The subject of the experiment is CEM cells HIV-1 protection, formazan growth assay. Briefly: NCI AIDS Antiviral Assay. The note with it: for IC50: measured here: growth of uninfected CEM cells. The method in brief: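 Screen of anti-HIV-1 activity in human CEM cells using a formazan-based growth measurement at five drug concentrations. Hits with 50% or greater protection were repeated, and confirmation required reproducible complete protection.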

One may read the EC50 as the midpoint of the concentration-response curve. In general, IC50 refers to the concentration needed to halve the response being measured. Read a low IC50 as inhibition by little substance. With `O=C1Cc2c([nH]c3ccc(F)cc23)-c2ccccc2N1`, the EC50 was greater than 200 µM and the IC50 came out at 9.77 µM.

Regarding `Cc1ccc2[nH]c3c(c2c1)CC(=O)Nc1ccccc1-3`, the EC50 is greater than 200 µM and the IC50 is greater than 200 µM.
